Patent US20250326860A1
Where a chain is given by its changes, count along the chain named. No constants are given. Whether binding was seen depends on the method and setting. Some results given as binding are weak or reduced against the parent protein; the word gives no strength.

Chains of the proteins cited; added tags and fusions are not shown. Residues count along the entry.
UniProt P07766, residues 23-207: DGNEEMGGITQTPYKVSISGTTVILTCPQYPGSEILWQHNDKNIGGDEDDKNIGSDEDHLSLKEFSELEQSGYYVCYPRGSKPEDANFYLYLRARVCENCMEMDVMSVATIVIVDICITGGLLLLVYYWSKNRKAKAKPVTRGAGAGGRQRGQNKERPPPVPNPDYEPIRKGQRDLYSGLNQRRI

B1: TY24557 (antibody, V domains shown)
VH: EVQLVESGGGLVKPGGSLRLSCAASGFTFSTYAMNWVRQAPGKGLEWVSRIRSKYNNYATYYADSVKDRFTISRDDSKNTLYLQINSLRAEDTAVYYCVRHGNFGTSYVSWFAYWGQGTLVTVSS
VL: EAVVTQEPSLTVSPGGTVTLTCGSSTGAVTTSNYPNWVQQKPGQAPRGLIGGTNKRAPGTPARFSGSLLGGKAALTLSGAQPEDEAEYYCALWYSDLWVFGGGTKLTVL
B2: TY24742 (antibody, V domains shown)
VH: B1 VH with K13Q, M34I, D64E
VL: B1 VL
B3: TY24757 (antibody, V domains shown)
VH: B1 VH with K13Q, M34I, D64E
VL: B1 VL with E1Q, P35A, D96T
B4: TY24566 (antibody, V domains shown)
VH: B1 VH with K13Q
VL: B1 VL with G23R, P35A, N54K, K55F, T60V
B5: TY24569 (antibody, V domains shown)
VH: B1 VH
VL: B1 VL with G23R, P35A, N54K, K55F, T60V

Molecular target: human CD3 on cells (Jurkat cells, human T cells) (human) (UniProt P07766)
Assay: flow cytometry on Jurkat cells, APC anti-human IgG secondary antibody

binding, binds:
B1
B2
B3
B4
B5
